# Measured values: PubChem BioAssay AID1347075 (National Center for Advancing Translational Sciences (NCATS), 2019)
# Among all 400,000 compounds or so, about 5,500 (1.4%) were called active. Inconclusive means that the source gave no clear call. Such entries were picked first, then a sample of the others. Calls follow the shape of the dose curve; as a rule, active = well fitted cell-killing curve with a large enough effect; inconclusive = small, poorly fitted or top-dose-only effect, or effect the other way; inactive = flat fitted curve, though single readings scatter. Where the call is inconclusive, the potency comes from a doubtful curve fit.
# Test: qHTS assay for MDR1-selective chemotherapeutics: Primary screen using the parental adenocarcinoma cell KB-3-1; also: nearly all actives have a fitted effect of over 60% in size
# Conditions: KB-3-1 viability, CellTiter-Glo ATP luminescence, 72 h; activity change, negative = cytotoxic: at 46.1 µM (top of the series)
# Summary of the method: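 72 h, 37 °C compound treatment of KB-3-1 parental cells; CellTiter-Glo added, 10 min, luminescence read. Data corrected against DMSO-only plates and normalized before curve fitting.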
# % is scaled to controls: 0 for no effect and ±100 for the full control effect; potency is read from the fitted curve at half-maximal effect.
SMILES,Potency,"activity change, negative = cytotoxic"
CCOC(=O)Cn1c(-c2nonc2NC(=O)c2ccccc2F)nc2ccccc21,"inconclusive: 0.0082 µM [cytotoxic, full curve, poor fit]",–
Cc1ccc(-c2c(C)n3c4c(=O)n(C)c(=O)n(C)c4nc3n2CCCO)cc1,"inconclusive: 10.3 µM [cytotoxic, partial curve, poor fit]",–
CC[n+]1c(/C=C2/C=C(C)CC(C)(C)C2)sc2ccc(OC)cc21,active: 20.6 µM,–
OC[C@@H]1[C@@H](c2ccccc2)C(c2cccc(Cl)c2)=NN1c1ccccc1,"inconclusive: 29.1 µM [cytotoxic, single point]",–
O=[N+]([O-])c1ccccc1/C=N/NC1=NCCN1,inactive,–
Cc1cccc(-c2nn(-c3ccccc3)cc2CNCCO)c1,inactive,–
S=C(Nc1ccccc1)c1ccccn1,"inconclusive: 2.59 µM [cytotoxic, partial curve, poor fit]",–
O=C(NCc1cccnc1)c1sc2ccccc2c1Cl,"inconclusive: 13 µM [rising, partial curve]",–
O=C(OCCOc1ccc(Cl)cc1)c1cc(S(=O)(=O)N2CCCCC2)ccc1N1CCOCC1,"inconclusive: 18.4 µM [cytotoxic, partial curve]",–
Cc1cccc(-n2cnc3cc(C(=O)NCC4CCCO4)ccc32)c1 (stereo not drawn),active: 18.4 µM,–
Cc1ccc(Cl)cc1NC(=O)N[C@@H](CC(C)C)C(=O)O,inactive,–
COc1ccc(Cl)cc1N(CC(=O)Nc1ccc2c(c1)OCCO2)S(C)(=O)=O,"inconclusive: 0.058 µM [rising, full curve]",–
CCN(CC)C(=O)c1sc(NC(=O)c2cccs2)c(C#N)c1C,"inconclusive: 32.6 µM [rising, single point]",–
COc1cccc(-c2cc3nc(NCc4ccc(C)cc4C)n(C)c(=O)c3s2)c1,"inconclusive: 25.9 µM [cytotoxic, single point]",–
Cc1c2cnn(CC(=O)NCc3ccc(F)cc3)c(=O)c2c(C)n1Cc1ccccc1Cl,"inconclusive: 18.4 µM [cytotoxic, single point]",–
COc1ccc(N2C3=C(CC4=C2CC(C)(C)CC4=O)C(=O)CC(C)(C)C3)cc1,"inconclusive: 16.4 µM [cytotoxic, single point]",–
Nn1c(=S)[nH]c2sc3c(c2c1=O)CCCC3,"inconclusive: 20.6 µM [rising, single point]",–
C#CCOCCOCCOCCNc1nc(N2CCN(C(=O)CCCCCCCCCCNC(=O)Cn3cc(C[C@@H](C)O)nn3)CC2)nc(N2CCN(C(=O)CCCCCCCCCCNC(=O)[C@@H](CCC(=O)O)n3cc(CCCCCN)nn3)CC2)n1,inactive,–
COc1ccc(/C=C2/CCC(CN3CCOCC3)C2=O)cc1 (stereo not drawn),"inconclusive: 25.9 µM [cytotoxic, single point]",–
CCOC(=O)C1CCCN(C(=O)C2CCN(S(=O)(=O)c3c(C)noc3/C=C/c3ccc(C)cc3)CC2)C1 (stereo not drawn),inactive,–
Cn1cccc1Cc1nnc(SCC(=O)NCc2ccccc2)n1-c1ccc(F)cc1,inactive,–
CC(=O)c1ccc(NC(=O)CN2CCN(S(=O)(=O)c3ccc4ccccc4c3)CC2)cc1,–,inconclusive: -38.9%
COc1cc(O)c(C(CC(=O)N2CCC(c3ccccc3)CC2)c2ccc(C)cc2)c(OC)c1 (stereo not drawn),"inconclusive: 31.6 µM [cytotoxic, single point]",–

# Sorted by number of heavy atoms (ascending): part of the list above
SMILES,Potency,"activity change, negative = cytotoxic"
O=C(NCc1cccnc1)c1sc2ccccc2c1Cl,"inconclusive: 13 µM [rising, partial curve]",–
COc1ccc(/C=C2/CCC(CN3CCOCC3)C2=O)cc1 (stereo not drawn),"inconclusive: 25.9 µM [cytotoxic, single point]",–
CC[n+]1c(/C=C2/C=C(C)CC(C)(C)C2)sc2ccc(OC)cc21,active: 20.6 µM,–

# Following part

SMILES,Potency,"activity change, negative = cytotoxic"
CC(=O)c1cccc(CN2CCc3ccc(NC(=O)C4CCCO4)cc3C2)c1 (stereo not drawn),"inconclusive: 0.82 µM [cytotoxic, full curve, poor fit]",–
Nc1n[nH]c(-c2ccc(Br)cc2)c1Cl,"inconclusive: 20.6 µM [cytotoxic, partial curve, poor fit]",–
CCOC(=O)C1CCCN(S(=O)(=O)c2ccc(S(=O)(=O)N(CC)CC)cc2)C1 (stereo not drawn),"inconclusive: 13 µM [cytotoxic, partial curve]",–
COc1ccc(NC(=S)N2CCCC2)cc1,inactive,–
COc1ccc(NC(=O)C2c3ccccc3OCC(=O)N2Cc2ccco2)cc1 (stereo not drawn),"inconclusive: 29.1 µM [cytotoxic, single point]",–
Cc1ccnc2nc(C(=O)OCC(=O)Nc3ccc4c(c3)OC(F)(F)O4)nn12,"inconclusive: 16.4 µM [rising, partial curve, poor fit]",–
O=C(Nc1nc2c(F)cc(F)cc2s1)c1ccc([N+](=O)[O-])o1,active: 10.3 µM,–
CCCC1CCc2c(sc(NC(=O)c3cccs3)c2C(N)=O)C1 (stereo not drawn),inactive,–
CC(NC(=O)CCNC(=O)N1CCn2c1nc1ccccc12)c1ccccc1 (stereo not drawn),"inconclusive: 32.6 µM [rising, single point]",–
FC(F)(F)c1cnc(N2CCN(C(=S)NCc3ccccc3)CC2)c(Cl)c1,"inconclusive: 0.0082 µM [cytotoxic, full curve]",–
CCOC(=O)N1CCN(Cc2nc3cc(NC(=O)CC(C)C)ccc3n2CC)CC1,"inconclusive: 29.1 µM [cytotoxic, single point]",–
COc1ccccc1C(=O)NCC(c1cccs1)N1CCc2ccccc21 (stereo not drawn),"inconclusive: 29.1 µM [cytotoxic, single point]",–
Fc1ccc(-c2nc3ccc(Br)cn3c2Cc2ccccc2)cc1,active: 20.6 µM,–
COc1ccc(Cl)cc1CC1(C)C(=O)Nc2ccc(-c3ccccc3OC)cc21 (stereo not drawn),"inconclusive: 29.1 µM [cytotoxic, single point]",–
CC(C)CNC(=O)c1cccc(NC(=O)Cc2ccc(Br)cc2)c1,"inconclusive: 20.6 µM [cytotoxic, partial curve, poor fit]",–
Cc1cccn2c(=O)c3cc(C(=O)NCc4ccccc4)c(=N)n(CCCN4CCOCC4)c3nc12,"inconclusive: 23.1 µM [cytotoxic, single point]",–
C#CCSc1nnc(-c2ccc(OC)cc2)o1,"inconclusive: 18.4 µM [cytotoxic, single point]",–
Cc1ccc(C(=O)Nc2ccc(Br)c(C(F)(F)F)c2)cc1,"inconclusive: 29.1 µM [cytotoxic, single point]",–
C=CCN1C(=O)C2(NC(=O)c3ccccc3N2)c2ccccc21 (stereo not drawn),"inconclusive: 23.1 µM [cytotoxic, single point]",–
Cn1nc(CC(=O)NC2CCCCCC2)c2ccccc2c1=O,"inconclusive: 13 µM [cytotoxic, partial curve]",–
CCc1c(C)nc2ncnn2c1N1CCCC(C(=O)NCCc2ccccc2)C1 (stereo not drawn),"inconclusive: 29.1 µM [cytotoxic, single point]",–
O=C(Nc1nc2ccccc2n1CCN1CCCCC1)C1CCCCC1,"inconclusive: 32.6 µM [cytotoxic, single point]",–
CCSc1nc2c(c(=O)[nH]c(=O)n2C)n1C/C=C(/C)Cl,inactive,–

# One compound at a time (already shown). Order of values: Potency	activity change, negative = cytotoxic
# O=C(Nc1nc2ccccc2n1CCN1CCCCC1)C1CCCCC1 is listed with inconclusive: 32.6 µM [cytotoxic, single point]	–
# Cc1cccn2c(=O)c3cc(C(=O)NCc4ccccc4)c(=N)n(CCCN4CCOCC4)c3nc12 is listed with inconclusive: 23.1 µM [cytotoxic, single point]	–
# COc1ccccc1C(=O)NCC(c1cccs1)N1CCc2ccccc21 (stereo not drawn) is listed with inconclusive: 29.1 µM [cytotoxic, single point]	–
# Fc1ccc(-c2nc3ccc(Br)cn3c2Cc2ccccc2)cc1 is listed with active: 20.6 µM	–

# Next part:

SMILES,Potency,"activity change, negative = cytotoxic"
Cc1ccc(CS(=O)Cc2ccc(C(=O)N3CCN(C4CCCCC4)CC3)o2)cc1 (stereo not drawn),inactive,–
COc1cc2c(cc1OC)C(C)N(C(=O)c1ccc(Br)o1)CC2 (stereo not drawn),active: 20.6 µM,–
CCN(C[C@H]1N[C@@](Cc2ccccc2)(C(=O)OC)[C@H]2C(=O)N(Cc3ccccc3)C(=O)[C@@H]12)S(=O)(=O)c1ccc(OC(F)(F)F)cc1,inactive,–
Cc1ccc(-c2noc(CSc3nnc(C)n3-c3ccc(F)cc3)n2)cc1,inactive,–
COC1CCN(Cc2cn(Cc3ccccc3)nc2-c2cc3ccccc3o2)CC1,"inconclusive: 32.6 µM [cytotoxic, single point]",–
CCCc1cc(=O)[nH]c(SCC(=O)Nc2ccc(Br)cc2Br)n1,inactive,–
O=C(c1cccc(S(=O)(=O)N2CCc3ccccc32)c1)N1CCc2ccccc2C1,"inconclusive: 29.1 µM [cytotoxic, single point]",–
COC(=O)c1ccccc1NC(=O)c1sc2nc(C)cc(C)c2c1NC(=O)c1ccccc1Cl,"inconclusive: 29.1 µM [cytotoxic, single point]",–
N#Cc1nc(COc2ccc(-c3ccccc3)cc2)oc1NCc1cccnc1,"inconclusive: 29.1 µM [cytotoxic, single point]",–
Cc1cc(Cl)ccc1OC(C)C(=O)NN=C1CCCCCC1 (stereo not drawn),"inconclusive: 29.1 µM [rising, single point]",–
O=C(Nc1nncs1)c1cc(S(=O)(=O)N2CCCCC2)ccc1Cl,inactive,–
N#CCC(=O)Nc1ccc(C(=O)OCC(=O)C23CC4CC(CC(C4)C2)C3)cc1,inactive,–
Cc1ccc(S(=O)(=O)N2CCCCC2)cc1NC(=O)Cn1ncc(Cl)c(Cl)c1=O,"inconclusive: 4.61 µM [cytotoxic, full curve]",–
CCCCCCC1CC(CSc2ncn[nH]2)OC1=O (stereo not drawn),inactive,–
Cc1ccc(S(=O)(=O)N(C)C)cc1[N+](=O)[O-],inactive,–
CCOC(=O)c1cccc(NC(=O)C2CCN(S(=O)(=O)c3c(C)noc3/C=C/c3ccc(C)cc3)CC2)c1,"inconclusive: 23.1 µM [cytotoxic, single point]",–
CCN1C(=O)c2ccc(C(=O)NCc3ccco3)cc2C1=O,inactive,–
CN1C(=S)N(c2cccnc2)C(=O)/C1=C\c1ccc(C(C)(C)C)cc1,"inconclusive: 29.1 µM [cytotoxic, single point]",–
CCCCCCn1c(CN2CCN(CCO)CC2)nc2c1c(=O)n(C)c(=O)n2C,"inconclusive: 18.4 µM [cytotoxic, partial curve, poor fit]",–
COc1ccc(S(=O)(=O)N2CCOCC2)cc1NC(=O)COC(=O)c1ccc([N+](=O)[O-])s1,"inconclusive: 29.1 µM [rising, single point]",–
CC1(NC(=O)c2ccccc2)CCN(CCCc2ccccc2)C1=O (stereo not drawn),"inconclusive: 20.6 µM [cytotoxic, single point]",–
COc1cc(/C(O)=C(\C#N)c2nc3ccccc3[nH]2)cc(OC)c1OC,inactive,–
